For at least one compound, name, drawing or mass did not settle the structure. Some results were stated once for a whole list of compounds, not compound by compound.
Molecular target: T1, 17betaHSD1 (Homo sapiens, UniProt P14061)
T1 sequence (P14061 1-328): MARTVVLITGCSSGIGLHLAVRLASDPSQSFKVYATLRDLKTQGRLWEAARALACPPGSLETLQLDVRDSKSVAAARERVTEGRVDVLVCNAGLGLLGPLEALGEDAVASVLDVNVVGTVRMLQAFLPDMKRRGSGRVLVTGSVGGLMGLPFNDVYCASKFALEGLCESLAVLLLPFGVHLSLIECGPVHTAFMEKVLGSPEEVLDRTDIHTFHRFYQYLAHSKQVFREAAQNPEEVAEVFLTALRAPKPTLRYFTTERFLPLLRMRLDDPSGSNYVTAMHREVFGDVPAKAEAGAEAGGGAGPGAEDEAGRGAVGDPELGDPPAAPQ
Test: screen of gossypol related compounds against 17betaHSD1 (enzyme activity)
Assay type: biochemical
Conditions: concentrations not given
Procedure: Seven gossypol related compounds were screened against 17betaHSD1. […] Four gossypol derivatives, in which the aldehyde functional group is modified, were tested. The peri-acylated nitrites, gossylic nitrile diacetate and gossylic nitrile divalerate, represent compounds in which the aldehyde group is [drawing 13] converted to a nitrile, and the peri hydroxyl of gossypol is derivatized.
Gossylic iminolactone and gossylic lactone were the most promising compounds, producing 80-90% reduction in enzyme activity. The inhibition constants for gossylic lactone and gossylic iminolactone were determined to be 2.2 and 4.3 uM respectively.

| Structure (SMILES) | reduction in enzyme activity | reduction in enzyme activity (in words) |
| --- | --- | --- |
| Cc1cc2c(C(C)C)c(O)c(O)c3c2c(c1-c1c(C)cc2c(C(C)C)c(O)c(O)c4c2c1OC4=N)OC3=N [Gossylic iminolactone, gossylic iminolactone] | 80-90% | – |
| Cc1cc2c(C(C)C)c(O)c(O)c(C=O)c2c(O)c1-c1c(C)cc2c(C(C)C)c(O)c(O)c(C=O)c2c1O [Gossypol, gossypol, reference compound] | – | only a slight reduction |
| Cc1cc2c(C(C)C)c(O)c(O)c3c2c(c1-c1c(C)cc2c(C(C)C)c(O)c(O)c4c2c1OC4=O)OC3=O [gossylic lactone] | 80-90% | – |
